From paper PMC4222275, “Biochemical and functional characterization of SpdA, a 2′, 3′cyclic nucleotide phosphodiesterase from Sinorhizobium meliloti” (BMC Microbiology, 2013)

Tested on: Clr-GST (Sinorhizobium meliloti 1021)
Test: EMSA
Details: 10 mM Tris pH 8.0, 1 mM EDTA, 1 mM DTT, 10 ug/ml BSA, 100 mM KCl, 50 ug/ml poly(dI-dC), 10% glycerol, 30 min room temperature, probe 1.75 nM, recombinant protein, protein details: N-terminal GST (pGEX-2T), label: 5'-32P

Sequence | binding result (200 uM 3',5'cAMP, Clr 1.75-35 uM) | binding result (200 uM 2',3'cAMP, 69 uM Clr) | binding result (200 uM 3',5'cAMP + 200 uM 2',3'cAMP (1/1), 69 uM Clr, no detectable effect of 2',3'cAMP) | binding result (200 uM 3',5'cAMP, Clr 1.75-35 uM, retarded migration, no clear shifted band) | binding result (no cAMP)
GGCATCGCCACCGCGGGAGCTGGCGGTG (double strand) [MN8 (mutated Clr-box 28-mer)] | no binding | – | – | – | –
GGCATCTGTTCCGCGGGAAACAGCGGTG (double strand) [WTN8 (WT Clr-box 28-mer, smc02178 promoter)] | – | no binding | binds | binds | no binding

For at least one entry, the source does not settle the construct or the ends of the probe. A negative result means that nothing was seen under these conditions.
